The supplement of paper PMC12067093, “Discovery and optimisation of a covalent ligand for TRIM25 and its application to targeted protein ubiquitination” (Chemical Science, 2025)
The list shows a part of the results.

The chains behind the UniProt entries cited, without tags or fusion partners. Where a name states a change or a piece, a line headed by the entry shows the natural chain unless it says otherwise.
UniProt P49454: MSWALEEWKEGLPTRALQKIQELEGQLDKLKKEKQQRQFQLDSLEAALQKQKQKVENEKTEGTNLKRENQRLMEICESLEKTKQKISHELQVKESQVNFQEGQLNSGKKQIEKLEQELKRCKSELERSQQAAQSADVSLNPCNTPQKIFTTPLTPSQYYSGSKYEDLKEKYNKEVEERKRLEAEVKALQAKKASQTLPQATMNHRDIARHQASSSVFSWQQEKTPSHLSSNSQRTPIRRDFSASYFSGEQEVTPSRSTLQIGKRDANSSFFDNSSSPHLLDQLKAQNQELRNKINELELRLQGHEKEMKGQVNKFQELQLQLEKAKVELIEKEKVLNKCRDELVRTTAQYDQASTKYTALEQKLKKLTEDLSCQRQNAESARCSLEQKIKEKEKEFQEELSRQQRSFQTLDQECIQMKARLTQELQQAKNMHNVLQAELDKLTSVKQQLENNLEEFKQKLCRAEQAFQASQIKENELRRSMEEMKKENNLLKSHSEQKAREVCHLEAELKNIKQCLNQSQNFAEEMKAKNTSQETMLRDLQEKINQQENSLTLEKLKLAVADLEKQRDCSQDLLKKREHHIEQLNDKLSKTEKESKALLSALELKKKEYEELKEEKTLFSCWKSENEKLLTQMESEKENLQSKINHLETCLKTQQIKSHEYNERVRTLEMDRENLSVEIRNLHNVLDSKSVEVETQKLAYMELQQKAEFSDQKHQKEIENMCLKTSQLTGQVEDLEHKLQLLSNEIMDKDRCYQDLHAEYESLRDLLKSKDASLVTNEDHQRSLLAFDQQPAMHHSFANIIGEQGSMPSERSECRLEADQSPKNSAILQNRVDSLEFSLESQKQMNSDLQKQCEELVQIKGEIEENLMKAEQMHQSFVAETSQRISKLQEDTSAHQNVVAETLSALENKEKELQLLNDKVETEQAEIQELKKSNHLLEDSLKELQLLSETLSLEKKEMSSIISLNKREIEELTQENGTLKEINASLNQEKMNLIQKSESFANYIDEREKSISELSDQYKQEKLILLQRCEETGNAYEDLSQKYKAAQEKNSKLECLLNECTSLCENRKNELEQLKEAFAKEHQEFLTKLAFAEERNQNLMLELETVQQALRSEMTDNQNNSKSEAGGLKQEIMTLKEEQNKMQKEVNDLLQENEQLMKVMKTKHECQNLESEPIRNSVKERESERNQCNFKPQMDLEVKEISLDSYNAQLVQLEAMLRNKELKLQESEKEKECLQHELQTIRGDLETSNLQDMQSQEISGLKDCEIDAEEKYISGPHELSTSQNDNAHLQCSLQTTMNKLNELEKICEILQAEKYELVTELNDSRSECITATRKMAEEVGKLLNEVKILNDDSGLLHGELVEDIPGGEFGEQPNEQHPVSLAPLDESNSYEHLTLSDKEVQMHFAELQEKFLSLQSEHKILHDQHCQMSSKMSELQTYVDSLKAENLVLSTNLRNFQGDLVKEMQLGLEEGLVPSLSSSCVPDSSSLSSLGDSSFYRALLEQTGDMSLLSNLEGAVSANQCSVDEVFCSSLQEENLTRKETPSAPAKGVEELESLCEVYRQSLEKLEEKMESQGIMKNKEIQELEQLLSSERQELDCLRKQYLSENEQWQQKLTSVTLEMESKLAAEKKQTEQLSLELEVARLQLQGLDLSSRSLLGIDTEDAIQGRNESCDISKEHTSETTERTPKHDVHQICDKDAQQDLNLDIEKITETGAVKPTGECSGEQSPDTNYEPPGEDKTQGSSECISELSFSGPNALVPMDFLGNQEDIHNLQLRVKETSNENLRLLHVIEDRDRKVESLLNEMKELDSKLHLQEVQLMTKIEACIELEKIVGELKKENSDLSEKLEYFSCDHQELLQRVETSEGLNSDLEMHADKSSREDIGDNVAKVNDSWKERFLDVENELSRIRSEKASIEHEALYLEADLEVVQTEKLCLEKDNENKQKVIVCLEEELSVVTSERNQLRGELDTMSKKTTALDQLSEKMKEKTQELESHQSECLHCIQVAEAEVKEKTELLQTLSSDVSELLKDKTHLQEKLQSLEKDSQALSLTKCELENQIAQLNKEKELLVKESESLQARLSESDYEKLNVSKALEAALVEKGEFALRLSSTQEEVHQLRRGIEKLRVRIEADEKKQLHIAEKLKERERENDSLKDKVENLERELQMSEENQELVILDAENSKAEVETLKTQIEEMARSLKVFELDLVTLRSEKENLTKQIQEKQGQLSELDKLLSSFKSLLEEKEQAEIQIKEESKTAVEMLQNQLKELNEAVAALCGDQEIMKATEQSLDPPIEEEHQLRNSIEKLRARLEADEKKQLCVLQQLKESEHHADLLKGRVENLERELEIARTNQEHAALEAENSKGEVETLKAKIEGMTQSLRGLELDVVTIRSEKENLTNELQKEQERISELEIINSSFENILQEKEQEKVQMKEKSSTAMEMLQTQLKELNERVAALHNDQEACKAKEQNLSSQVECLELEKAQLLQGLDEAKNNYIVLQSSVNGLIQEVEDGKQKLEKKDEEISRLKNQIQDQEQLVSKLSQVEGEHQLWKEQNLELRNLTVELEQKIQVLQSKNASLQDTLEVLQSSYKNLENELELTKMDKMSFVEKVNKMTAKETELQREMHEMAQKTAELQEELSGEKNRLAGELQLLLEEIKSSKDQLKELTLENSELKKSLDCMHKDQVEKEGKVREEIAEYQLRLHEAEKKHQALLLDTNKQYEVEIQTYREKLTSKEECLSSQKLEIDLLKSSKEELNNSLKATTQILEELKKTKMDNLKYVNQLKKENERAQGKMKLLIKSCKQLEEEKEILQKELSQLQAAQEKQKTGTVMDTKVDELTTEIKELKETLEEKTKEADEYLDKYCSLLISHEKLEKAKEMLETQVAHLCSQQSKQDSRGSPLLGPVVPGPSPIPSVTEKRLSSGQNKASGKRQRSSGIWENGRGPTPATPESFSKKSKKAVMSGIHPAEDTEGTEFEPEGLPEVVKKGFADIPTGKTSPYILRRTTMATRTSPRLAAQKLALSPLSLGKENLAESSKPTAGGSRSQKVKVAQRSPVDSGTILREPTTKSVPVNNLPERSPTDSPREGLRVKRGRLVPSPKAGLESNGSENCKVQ
UniProt Q9UPV0, whole entry, looked up: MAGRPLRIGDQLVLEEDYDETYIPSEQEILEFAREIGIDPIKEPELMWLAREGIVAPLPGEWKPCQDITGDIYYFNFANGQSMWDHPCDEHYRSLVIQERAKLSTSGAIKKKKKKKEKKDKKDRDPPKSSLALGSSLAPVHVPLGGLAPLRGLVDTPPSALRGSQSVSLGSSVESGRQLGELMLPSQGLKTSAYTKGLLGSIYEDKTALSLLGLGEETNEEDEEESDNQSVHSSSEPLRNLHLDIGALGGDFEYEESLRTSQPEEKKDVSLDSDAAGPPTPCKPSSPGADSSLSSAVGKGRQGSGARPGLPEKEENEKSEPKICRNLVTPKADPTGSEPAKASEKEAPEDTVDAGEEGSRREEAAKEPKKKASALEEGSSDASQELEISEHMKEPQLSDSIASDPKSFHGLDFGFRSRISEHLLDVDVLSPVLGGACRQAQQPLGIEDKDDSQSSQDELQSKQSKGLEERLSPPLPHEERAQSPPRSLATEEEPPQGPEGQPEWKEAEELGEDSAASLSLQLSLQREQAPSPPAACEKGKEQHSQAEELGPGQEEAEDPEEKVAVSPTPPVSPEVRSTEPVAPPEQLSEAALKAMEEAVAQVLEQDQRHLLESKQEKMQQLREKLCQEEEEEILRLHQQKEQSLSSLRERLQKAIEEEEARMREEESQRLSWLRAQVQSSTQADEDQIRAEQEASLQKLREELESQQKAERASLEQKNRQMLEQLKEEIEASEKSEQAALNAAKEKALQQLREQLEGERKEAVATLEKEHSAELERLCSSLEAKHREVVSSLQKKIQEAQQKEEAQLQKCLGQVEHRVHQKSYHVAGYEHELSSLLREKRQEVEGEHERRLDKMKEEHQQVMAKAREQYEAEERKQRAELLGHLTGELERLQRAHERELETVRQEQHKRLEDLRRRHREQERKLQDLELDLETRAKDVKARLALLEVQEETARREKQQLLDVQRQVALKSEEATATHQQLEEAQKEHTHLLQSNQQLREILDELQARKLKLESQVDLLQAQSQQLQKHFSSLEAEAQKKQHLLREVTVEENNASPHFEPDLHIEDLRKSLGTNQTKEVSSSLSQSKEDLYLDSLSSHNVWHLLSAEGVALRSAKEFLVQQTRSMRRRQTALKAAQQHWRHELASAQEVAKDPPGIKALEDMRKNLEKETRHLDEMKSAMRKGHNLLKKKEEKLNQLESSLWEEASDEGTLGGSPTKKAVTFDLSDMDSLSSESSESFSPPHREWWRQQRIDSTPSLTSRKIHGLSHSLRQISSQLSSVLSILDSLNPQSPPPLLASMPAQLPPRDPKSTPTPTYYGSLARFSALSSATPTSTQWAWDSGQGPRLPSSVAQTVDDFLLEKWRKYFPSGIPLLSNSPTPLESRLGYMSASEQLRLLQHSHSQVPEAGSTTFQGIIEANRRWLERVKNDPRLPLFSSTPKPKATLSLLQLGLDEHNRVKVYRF
UniProt Q9NRR8: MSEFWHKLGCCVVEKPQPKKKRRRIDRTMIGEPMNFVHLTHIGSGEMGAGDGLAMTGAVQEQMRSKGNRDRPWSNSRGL
UniProt P60953, whole entry, looked up: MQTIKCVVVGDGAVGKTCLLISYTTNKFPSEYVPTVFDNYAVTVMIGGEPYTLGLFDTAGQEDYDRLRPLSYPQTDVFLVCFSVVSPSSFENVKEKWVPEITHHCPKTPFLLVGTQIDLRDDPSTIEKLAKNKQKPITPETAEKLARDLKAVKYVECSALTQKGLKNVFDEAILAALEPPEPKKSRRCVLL
UniProt Q6ZU80: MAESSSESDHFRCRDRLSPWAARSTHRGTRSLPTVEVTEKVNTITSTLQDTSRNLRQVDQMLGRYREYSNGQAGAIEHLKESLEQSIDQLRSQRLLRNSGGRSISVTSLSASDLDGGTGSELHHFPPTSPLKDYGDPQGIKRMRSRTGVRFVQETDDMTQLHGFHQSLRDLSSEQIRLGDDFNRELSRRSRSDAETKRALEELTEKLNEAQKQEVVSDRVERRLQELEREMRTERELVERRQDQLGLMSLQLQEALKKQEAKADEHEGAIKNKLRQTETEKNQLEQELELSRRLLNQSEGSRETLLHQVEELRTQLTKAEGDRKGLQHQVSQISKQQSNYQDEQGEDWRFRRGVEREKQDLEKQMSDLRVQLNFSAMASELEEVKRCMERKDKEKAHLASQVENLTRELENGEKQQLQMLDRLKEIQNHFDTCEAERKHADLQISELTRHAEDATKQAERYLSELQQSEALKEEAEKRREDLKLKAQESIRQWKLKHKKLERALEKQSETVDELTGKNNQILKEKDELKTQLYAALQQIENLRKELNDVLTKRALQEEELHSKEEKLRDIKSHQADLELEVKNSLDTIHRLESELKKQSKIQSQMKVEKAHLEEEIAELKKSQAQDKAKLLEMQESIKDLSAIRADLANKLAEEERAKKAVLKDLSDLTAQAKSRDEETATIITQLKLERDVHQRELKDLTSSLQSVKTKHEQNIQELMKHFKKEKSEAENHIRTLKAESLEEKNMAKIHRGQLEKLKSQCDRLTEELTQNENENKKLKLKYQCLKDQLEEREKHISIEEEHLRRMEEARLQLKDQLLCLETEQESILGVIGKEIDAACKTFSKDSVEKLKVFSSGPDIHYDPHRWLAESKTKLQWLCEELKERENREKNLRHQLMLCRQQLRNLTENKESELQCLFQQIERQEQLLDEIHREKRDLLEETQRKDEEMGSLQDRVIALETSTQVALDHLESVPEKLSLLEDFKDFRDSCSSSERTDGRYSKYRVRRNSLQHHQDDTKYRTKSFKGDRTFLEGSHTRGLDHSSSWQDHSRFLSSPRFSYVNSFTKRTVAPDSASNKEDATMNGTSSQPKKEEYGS
UniProt Q13042, whole entry, looked up: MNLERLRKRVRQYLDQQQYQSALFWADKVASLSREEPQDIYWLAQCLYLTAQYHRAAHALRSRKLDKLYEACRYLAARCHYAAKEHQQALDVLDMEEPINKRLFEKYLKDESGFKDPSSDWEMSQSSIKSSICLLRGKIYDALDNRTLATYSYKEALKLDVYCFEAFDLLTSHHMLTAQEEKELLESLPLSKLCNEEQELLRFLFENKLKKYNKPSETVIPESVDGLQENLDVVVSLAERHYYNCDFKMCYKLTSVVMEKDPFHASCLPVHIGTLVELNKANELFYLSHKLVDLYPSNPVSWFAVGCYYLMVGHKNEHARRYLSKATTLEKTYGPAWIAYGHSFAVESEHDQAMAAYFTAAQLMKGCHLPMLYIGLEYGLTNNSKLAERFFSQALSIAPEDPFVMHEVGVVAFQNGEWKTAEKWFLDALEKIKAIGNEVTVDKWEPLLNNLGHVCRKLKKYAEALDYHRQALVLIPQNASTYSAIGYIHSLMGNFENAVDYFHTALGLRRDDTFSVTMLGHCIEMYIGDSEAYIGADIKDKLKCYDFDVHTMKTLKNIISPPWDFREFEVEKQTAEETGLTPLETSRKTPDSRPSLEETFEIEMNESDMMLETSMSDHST

Compound: CC1Cc2ccccc2N1C(=O)C1CCCN(C1)C(=O)CCl (mixture of isomers) [TRIM25 ligand 11 (diastereomer mixture)]
Experiment: probe-labelled cysteine peptide fold change vs DMSO (competition) (log2 fold change); higher = less target engagement (more negative = stronger competition)
Details: THP-1, incubation time: 4 h
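Further: competitive chemoproteomic profiling in live THP-1 cells with an iodoacetamide desthiobiotin (IA-DTB) probe, comparing probe-labelled peptide intensities in compound-treated cells against DMSO-treated controls.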

| Target | probe-labelled cysteine peptide fold change (10 µM) | probe-labelled cysteine peptide fold change (50 µM) |
| --- | --- | --- |
| CENPF_P49454_1426_ILHDQHCQMSSK (UniProt P49454) | 0.0226 | -0.0992 |
| CENPV_Q7Z7K6_216_AQHTFCK (UniProt Q7Z7K6) | 0.0351 | 0.0383 |
| CENPF_P49454_1233_ECLQHELQTIR (UniProt P49454) | -0.0765 | 0.0395 |
| CENPF_P49454_1264_DCEIDAEEK (UniProt P49454) | -0.135 | -0.205 |
| CCT8_P50990_149_KAHEILPNLVCCSAK (UniProt P50990) | -0.0904 | -0.122 |
| CELF2_O95319_143_CNENDIR (UniProt O95319) | -0.0913 | 0.00912 |
| CDC23_Q9UJX2_532_LWDEASTCAQK (UniProt Q9UJX2) | 0.0895 | 0.121 |
| CEP164_Q9UPV0_437_ISEHLLDVDVLSPVLGGACR (UniProt Q9UPV0) | 0.16 | 0.047 |
| CDYL_Q9Y232_571_MELEQANERECEVLK (UniProt Q9Y232) | -0.0968 | -0.0996 |
| CDC20_Q12834_403_IWNVCSGACLSAVDAHSQVCSILWSPHYK (UniProt Q12834) | 0.187 | 0.244 |
| CEP350_Q5VT06_413_VAQLSSTECR (UniProt Q5VT06) | -0.033 | 0.0961 |
| CDC45_O75419_267_HNHRNEDEENTLSVDCTR (UniProt O75419) | 0.198 | 0.147 |
| CENPF_P49454_503_EVCHLEAELK (UniProt P49454) | -0.0277 | 0.141 |
| CEBPZ_Q03701_374_ALTVAHELLCNKPEEEK (UniProt Q03701) | -0.0843 | -0.0993 |
| CD68_P34810_207_VQGSCEGAHPHLLLSFPYGHLSFGFMQDLQQK (UniProt P34810) | 0.0569 | -0.136 |
| CENPJ_Q9HC77_634_TNPADPISHCNR (UniProt Q9HC77) | 0.418 | 0.296 |
| CCT8_P50990_244_IAVYSCPFDGMITETK (UniProt P50990) | -0.0213 | -0.156 |
| CDC42SE1_Q9NRR8_11_LGCCVVEKPQPK (UniProt Q9NRR8) | -0.224 | -0.137 |
| CD38_P28907_275_NIQFSCK (UniProt P28907) | 0.0138 | -0.0974 |
| CEP41_Q9BYV8_171_DKPYPDCPFLLLDVR (UniProt Q9BYV8) | 0.0823 | 0.155 |
| CENPF_P49454_1790_HDVHQICDK (UniProt P49454) | -0.11 | -0.217 |
| CEP250_Q9BV73_2348_CVAELQK (UniProt Q9BV73) | -0.0293 | 0.0351 |

Taken from above.
Entry of CD68_P34810_207_VQGSCEGAHPHLLLSFPYGHLSFGFMQDLQQK (UniProt P34810) under probe-labelled cysteine peptide fold change (10 µM): 0.0569
Entry of CEP41_Q9BYV8_171_DKPYPDCPFLLLDVR (UniProt Q9BYV8) under probe-labelled cysteine peptide fold change (10 µM): 0.0823
Entry of CEP164_Q9UPV0_437_ISEHLLDVDVLSPVLGGACR (UniProt Q9UPV0) under probe-labelled cysteine peptide fold change (50 µM): 0.047
Entry of CENPF_P49454_1790_HDVHQICDK (UniProt P49454) under probe-labelled cysteine peptide fold change (50 µM): -0.217

(listing goes on)

| Target | probe-labelled cysteine peptide fold change (10 µM) | probe-labelled cysteine peptide fold change (50 µM) |
| --- | --- | --- |
| CD70_P32970_17_RRPYGCVLR (UniProt P32970) | -0.0812 | 0.0199 |
| CCT8_P50990_148+149_AHEILPNLVCCSAK (UniProt P50990) | 0.0728 | 0.0614 |
| CEP350_Q5VT06_2716_LCTPLLDLLTR (UniProt Q5VT06) | -0.0855 | -0.0909 |
| CDPF1_Q6NVV7_7_ASHVECR (UniProt Q6NVV7) | -0.0171 | 0.247 |
| CEP152_O94986_791_TLDCGSQTDQVTTSDVISK (UniProt O94986) | -0.00933 | -0.209 |
| CDC42_P60953_157_YVECSALTQK (UniProt P60953) | 0.0184 | 0.047 |
| CDK13_Q14004_840_CSNILLNNR (UniProt Q14004) | 0.0465 | 0.0456 |
| CEP63_Q96MT8_108_LHEELCILK (UniProt Q96MT8) | -0.057 | -0.131 |
| CENPF_P49454_2985_EMLETQVAHLCSQQSK (UniProt P49454) | 0.00541 | 0.0165 |
| CCT8_P50990_149_AHEILPNLVCCSAK (UniProt P50990) | -0.0788 | 0.0945 |
| CCT5_P48643_493_EMNPALGIDCLHK (UniProt P48643) | -0.0607 | -0.24 |
| CDC37_Q16543_64_KVAECQR (UniProt Q16543) | -0.149 | 0.1 |
| CENPL_Q8N0S6_286_TPGEVTQEEVDLFMDCLYSHFHR (UniProt Q8N0S6) | 0.0896 | -0.281 |
| CDCA7L_Q96GN5_422_CATGILIHLAK (UniProt Q96GN5) | -0.204 | -0.214 |
| CDK5RAP3_Q96JB5_165_EQFYHSCK (UniProt Q96JB5) | 0.0193 | -0.0693 |
| CEP128_Q6ZU80_433_EIQNHFDTCEAER (UniProt Q6ZU80) | 0.0892 | 0.0924 |
| CDC123_O75794_170_WCELIPGAEFR (UniProt O75794) | -0.0198 | -0.0653 |
| CCT7_Q99832_326_TMMACGGSIQTSVNALSADVLGR (UniProt Q99832) | -0.0121 | -0.141 |
| CEP192_Q8TEP8_1562_APVEVAPCADVVTR (UniProt Q8TEP8) | 0.0187 | -0.0557 |
| CDK5RAP3_Q96JB5_150_KEEECQAGAAEMR (UniProt Q96JB5) | -0.113 | -0.132 |
| CEP97_Q8IW35_484_AGLLPCPEPTIISAILK (UniProt Q8IW35) | 0.288 | -0.303 |
| CDK8_P49336_25_VEDLFEYEGCK (UniProt P49336) | -0.0464 | -0.167 |

| Target | probe-labelled cysteine peptide fold change (10 µM) | probe-labelled cysteine peptide fold change (50 µM) |
| --- | --- | --- |
| CD97_P48960_513_GGHWATEGCQVLGSK (UniProt P48960) | 0.104 | -0.0514 |
| CES1_P23141_116_LSEDCLYLNIYTPADLTK (UniProt P23141) | 0.136 | 0.243 |
| CEP170_Q5SW79_967_CSTGSPSK (UniProt Q5SW79) | -0.262 | -0.0381 |
| CD81_P60033_175_NNLCPSGSNIISNLFK (UniProt P60033) | 0.0204 | -0.0136 |
| CEP55_Q53EZ4_462_DLLVHVEYCSK (UniProt Q53EZ4) | 0.0267 | 0.0517 |
| CELF1_Q92879_119_KCTENDIR (UniProt Q92879) | -0.0544 | 0.0502 |
| CENPF_P49454_2961_YCSLLISHEK (UniProt P49454) | -0.0919 | -0.0693 |
| CDK6_Q00534_15_ADQQYECVAEIGEGAYGK (UniProt Q00534) | -0.0925 | -0.233 |
| CD70_P32970_133_HHPTTLAVGICSPASR (UniProt P32970) | -0.0288 | -0.285 |
| CDK14_O94921_402_LLQCSPK (UniProt O94921) | -0.179 | 0.0408 |
| CDC123_O75794_9_EHVLHCQFSAWYPFFR (UniProt O75794) | 0.103 | 0.112 |
| CCT6A_P40227_508_QLLHSCTVIATNILLVDEIMR (UniProt P40227) | 0.0744 | 0.13 |
| CDC73_Q6P1J9_145_IEDEECVRLDK (UniProt Q6P1J9) | -0.292 | -0.274 |
| CD70_P32970_8_PEEGSGCSVR (UniProt P32970) | -0.115 | -0.0805 |
| CEP250_Q9BV73_2008_SLEASTATLQASLDACQAHSR (UniProt Q9BV73) | 0.121 | -0.0252 |
| CDS1_Q92903_10_GSCPGPR (UniProt Q92903) | -0.507 | 0.241 |
| CDAN1_Q8IWY9_1017_ACEHHAPLPSHLISEIK (UniProt Q8IWY9) | 0.018 | 0.0953 |
| CDC27_P30260_184_FTSLQNFSNCLPNSCTTQVPNHSLSHR (UniProt P30260) | -0.0579 | -0.387 |
| CENPC_Q03188_472_NMEEHEEMGNDCVSK (UniProt Q03188) | 0.194 | 0.211 |
| CENPF_P49454_752_CYQDLHAEYESLRDLLK (UniProt P49454) | -0.0592 | -0.0479 |
| CEP128_Q6ZU80_989_DSCSSSER (UniProt Q6ZU80) | 0.0392 | -0.00849 |
| CENPC_Q03188_291_HAATAPPHSCPPDDTK (UniProt Q03188) | -0.109 | -0.114 |

| Target | probe-labelled cysteine peptide fold change (10 µM) | probe-labelled cysteine peptide fold change (50 µM) |
| --- | --- | --- |
| CELF1_Q92879_177_AMHQAQTMEGCSSPMVVK (UniProt Q92879) | -0.222 | -0.255 |
| CDK1_P06493_119_SYLYQILQGIVFCHSR (UniProt P06493) | -0.124 | -0.124 |
| CDC16_Q13042_163_EALKLDVYCFEAFDLLTSHHMLTAQEEK (UniProt Q13042) | -0.0995 | -0.0304 |
| CEP290_O15078_998_TSNLEHLECENISLK (UniProt O15078) | 0.0184 | 0.0276 |
| CDK2_P24941_177_APEILLGCK (UniProt P24941) | 0.0172 | 0.148 |
| CDK8_P49336_64_QIEGTGISMSACR (UniProt P49336) | -0.025 | -0.0711 |
| CDC16_Q13042_544_CYDFDVHTMK (UniProt Q13042) | -0.158 | -0.0934 |
| CDC23_Q9UJX2_324_SELSYLAHNLCEIDK (UniProt Q9UJX2) | 0.169 | 0.0288 |
| CDC23_Q9UJX2_489_LHEQLTESEQAAQCYIK (UniProt Q9UJX2) | 0.0631 | 0.0348 |
| CDC16_Q13042_46_EEPQDIYWLAQCLYLTAQYHR (UniProt Q13042) | 0.246 | -0.0564 |
| CDK4_P11802_135_GLDFLHANCIVHR (UniProt P11802) | 0.0386 | 0.0843 |
| CDK5_Q00535_290_ISAEEALQHPYFSDFCPP (UniProt Q00535) | -0.505 | -0.0852 |
| CD33_P20138_325_LHGPTETSSCSGAAPTVEMDEELHYASLNFHGMNPSK (UniProt P20138) | -0.0389 | -0.271 |
| CEP152_O94986_732_EVTAVQECYLEVCR (UniProt O94986) | 0.0812 | 0.291 |
| CCT5_P48643_429+440_VVYGGGAAEISCALAVSQEADKCPTLEQYAMR (UniProt P48643) | -0.229 | -0.334 |
| CDC42_P60953_105_WVPEITHHCPK (UniProt P60953) | -0.0221 | 0.0288 |
| CD151_P48509_192_TVVALCGQR (UniProt P48509) | 0.0259 | 0.122 |
| CEP170_Q5SW79_776_CREETFKQESQPPEK (UniProt Q5SW79) | -0.225 | -0.266 |
| CDK4_P11802_215_RKPLFCGNSEADQLGK (UniProt P11802) | -0.0231 | 0.0621 |
| CENPP_Q6IPU0_147_LSSAVTDLNIIMEPTECSELSEFVSR (UniProt Q6IPU0) | -0.0616 | -0.104 |
